Paper PMC7555382
Results are given in words; binding and its absence hold for the method and conditions named. Binding seen in cells or lysates may run through a third protein. Some entries that bind do so weakly or less than the wild type. One block for each substance: values may come before it.

By UniProt entry, the sequences of proteins in these tests, tags left out. Residues count along the entry.
UniProt P30532, residues 23-468: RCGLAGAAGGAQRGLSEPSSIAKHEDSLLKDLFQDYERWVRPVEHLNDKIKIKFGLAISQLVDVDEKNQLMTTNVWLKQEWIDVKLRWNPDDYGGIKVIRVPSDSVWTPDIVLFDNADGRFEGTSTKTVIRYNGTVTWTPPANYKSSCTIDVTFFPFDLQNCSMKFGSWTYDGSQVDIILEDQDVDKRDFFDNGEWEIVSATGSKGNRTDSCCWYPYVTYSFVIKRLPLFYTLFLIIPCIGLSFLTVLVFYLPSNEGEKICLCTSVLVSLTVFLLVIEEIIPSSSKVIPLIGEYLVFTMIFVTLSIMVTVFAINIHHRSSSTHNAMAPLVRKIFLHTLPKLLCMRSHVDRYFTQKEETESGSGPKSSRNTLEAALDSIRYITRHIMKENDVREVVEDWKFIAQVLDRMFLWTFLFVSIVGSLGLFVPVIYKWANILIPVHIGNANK

Columns and labels:
[1] = biological target: His-tagged wild-type EGFR (epidermal growth factor receptor) (UniProt P00533); assay: co-IP; HEK293T, A549 or H1975 cells transfected with His-EGFR WT and HA-α5; lysates immunoprecipitated with anti-His or anti-HA (in Figure 3D anti-EGFR or anti-α5) antibodies, western blot; also after 8 h serum starvation and 1 h EGF or nicotine, which enhanced the association
[2] = biological target: HA-tagged nAChR α5 (nicotinic acetylcholine receptor subunit α5) (UniProt P30532); assay: as above
[3] = biological target: endogenous EGFR of A549 cells (EGFR wild-type) (human (endogenous in A549)) (UniProt P00533); assay: co-IP; lysates of untransfected A549 and H1975 cells immunoprecipitated with anti-α5 or anti-EGFR antibodies, western blot; A549 also after 8 h serum starvation and 1 h EGF or nicotine, which enhanced the association

- binding [1]: binds
Substance: HA-tagged nAChR α5 (nicotinic acetylcholine receptor subunit α5) (from UniProt P30532 23-468)

- binding [2]: binds
Substance: His-tagged wild-type EGFR (epidermal growth factor receptor) (from UniProt P00533 25-1210)

- binding [3]: binds
Substance: endogenous α5-nAChR (nicotinic acetylcholine receptor subunit α5) (from UniProt P30532 23-468)
